# Test results as given in PubChem BioAssay AID1347131 (National Center for Advancing Translational Sciences (NCATS), 2019).
# Where “and” joins values, the source holds several entries; their conditions need not be identical. Equal values may be shown once. The whole screen tested about 410,000 compounds, of which about 2,000 (0.49%) were called active. The inconclusive results got no clear call from the source; some entries with a clear call stand among them for comparison. Calls come from the whole dose curve; tested in HEK293 reporter line. Potencies beside an inconclusive call are fits to weak or partial responses and may not hold up.
# Assay: qHTS Assay for Foot and Mouth Disease Virus Antivirals: Primary Screen against the MLPCN compound library; note: nearly all actives have a fitted effect of over 55% in size
# Conditions: FMDV antiviral cell-based qHTS; activity, negative = inhibition: at 57.9 µM (top of the series)
# Potency is the fitted concentration of half-maximal effect.
SMILES,Potency,"activity, negative = inhibition"
COc1cccc(-c2nc(CS(=O)(=O)CC(=O)N3CCN(c4cc(C)ccc4C)CC3)c(C)o2)c1,"inconclusive: 20 µM [inhibitor, partial curve, poor fit]",–
O=C(COc1coc(CN2CCN(c3ccccc3F)CC2)cc1=O)NC1CCCC1,"inconclusive: 25.1 µM [inhibitor, partial curve, poor fit]",–
O=C(Nc1cccc(O)c1)c1noc2c1CCc1ccccc1-2,"inconclusive: 10 µM [inhibitor, single point]",–
COC(=O)C1=C(C)NC(=O)NC1c1cc(Cl)ccc1OC (stereo not given),"inconclusive: 17.8 µM [inhibitor, partial curve, poor fit]",–
CC1CCCC(NC(=O)Cn2cc3c(n2)CCCCC3)C1C (stereo not given),"inconclusive: 4.47 µM [inhibitor, partial curve]",–
Cc1ccc(/C=N/NC(=O)c2ccccn2)s1,"inconclusive: 17.8 µM [inhibitor, single point]",–
CCN1C(=O)/C(=C/c2nc3ccccc3c(=O)n2-c2ccccc2)c2ccccc21,"inconclusive: 25.1 µM [inhibitor, partial curve, poor fit]",–
CN1CCN(c2nc3c(c(=O)n(C)c(=O)n3C)n2CCSc2nnnn2-c2ccccc2)CC1,"inconclusive: 10 µM [inhibitor, partial curve]",–
CCSC1(SCC)N=C(N)C2(C#N)C(c3ccc(OC)c(OC)c3OC)C12C#N (stereo not given),"inconclusive: 25.1 µM [inhibitor, partial curve, poor fit]",–
COCCCNC(=O)C[C@H]1C[C@H](C(=O)N2CCCCC2)[C@@]2(CCc3ccccc3)c3[nH]c4ccc(Cl)cc4c3CCN2C1=O,"inconclusive: 39.8 µM [inhibitor, partial curve, poor fit]",–
CCOC(=O)c1c(NC2OC(=O)c3c2ccc(OC)c3OC)sc(C(=O)OC(C)(C)C)c1C (stereo not given),"inconclusive: 39.8 µM [inhibitor, single point]",–
O=C(NCc1ccccc1)c1nc(S(=O)(=O)Cc2ccccc2)ncc1Cl,"inconclusive: 35.5 µM [inhibitor, partial curve, poor fit] and inconclusive: 31.6 µM [inhibitor, single point]",–
COc1cccc(CC(=O)Nc2nc(-c3ccc(OC)c(OC)c3)cs2)c1,"inconclusive: 35.5 µM [inhibitor, partial curve, poor fit]",–
CS(=O)(=O)c1ncc(Cl)c(C(=O)Nc2ccc(OC(F)F)cc2)n1,"inconclusive: 20 µM [inhibitor, partial curve, poor fit]",–
Cc1nc2c(-c3ccc(Cl)cc3)cnn2c(N)c1-c1ccc(F)cc1,"inconclusive: 0.794 µM [inhibitor, full curve, poor fit]",–
COc1cccc(OC)c1C(=O)OCC(=O)NC1CCCCCC1,"inconclusive: 7.08 µM [inhibitor, partial curve]",–
Cc1ccc(NC(=O)CCCSc2ccccc2)cc1S(=O)(=O)N1CCOCC1,"inconclusive: 28.2 µM [inhibitor, single point]",–
O=C(Nc1cc(C(F)(F)F)ccc1Cl)c1cnn(-c2ccccc2)c1-n1cccc1,"inconclusive: 31.6 µM [inhibitor, partial curve, poor fit]",–
COc1ccc(/C=C2/CSC/C(=C/c3ccc(OC)c(OC)c3)C2=O)cc1OC,"inconclusive: 3.55 µM [inhibitor, full curve, poor fit]",–
Cc1ccc2c(c1)Oc1ccc(NC(=O)CCl)cc1C(=O)N2,"inconclusive: 14.1 µM [inhibitor, partial curve, poor fit]",–
O=C(Nc1ccccn1)c1onc2c1CCCC2,"inconclusive: 14.1 µM [inhibitor, partial curve, poor fit]",–
Nc1nc(C2CC2)c(Sc2sc(N)nc2C2CC2)s1,"inconclusive: 25.1 µM [inhibitor, single point]",–
COc1ccc(CCNC(=O)/C(C#N)=C/c2ccc(OCC(=O)NCC3CCCO3)cc2)cc1OC (stereo not given),inactive,–
COc1ccc(-c2csc3ncnc(N4CCN(c5ccccc5)CC4)c23)cc1,"inconclusive: 17.8 µM [inhibitor, partial curve, poor fit]",–
CCC(C)(C)c1ccc(OCCCC[n+]2ccccc2)c(C(C)(C)CC)c1,"inconclusive: 31.6 µM [inhibitor, partial curve, poor fit]",–
COc1ccc(CCNC(=O)c2ccc(Cn3c(=O)c4ccccc4n(Cc4ccc(C)cc4)c3=O)cc2)cc1OC,"inconclusive: 15.8 µM [inhibitor, partial curve, poor fit]",–
Cc1ccc(C(=O)Nc2ccc3ccccc3n2)cc1,"inconclusive: 12.6 µM [inhibitor, partial curve]",–
COc1ccccc1N(C)S(=O)(=O)c1ccc(C(=O)Nc2nc(C)cs2)cc1,"inconclusive: 28.2 µM [inhibitor, single point]",–

SMILES,Potency,"activity, negative = inhibition"
C=CCc1cccc2cc(-c3nc4ccc(C(=O)O)cc4[nH]3)c(=O)oc12,"inconclusive: 15.8 µM [inhibitor, partial curve, poor fit]",–
CCOc1ccccc1NC(=O)CC1(CC(=O)N2CCOCC2)CCCC1,–,inconclusive: -31.4% [inhibitor]
Cc1cc(C(=O)C(C)OC(=O)c2ccc(NC(=O)CC#N)cc2)c(C)n1-c1ccccc1 (stereo not given),"inconclusive: 15.8 µM [inhibitor, partial curve, poor fit]",–
O=C(Nc1ccc(N2CCN(C(=O)c3ccccc3F)CC2)cc1)c1cncc(Br)c1,"inconclusive: 31.6 µM [inhibitor, partial curve, poor fit]",–
CCOC(=O)N1CCC(NC(=O)c2cn(-c3ccc(OC)cc3)c(=O)c3ccccc23)CC1,"inconclusive: 17.8 µM [inhibitor, single point]",–
O=C(Nc1cccc(-c2nc3ccccc3o2)c1)c1ccc(N2C(=O)C3C4C=CC(C4)C3C2=O)cc1 (stereo not given),"inconclusive: 31.6 µM [inhibitor, partial curve, poor fit]",–
Cc1c(C(=O)N2CCC(C)CC2)oc2ccc3c(c12)C(O)CC1(CCCCC1)O3 (stereo not given),"inconclusive: 12.6 µM [inhibitor, partial curve, poor fit]",–
Nc1c(C(=O)Nc2ccccc2)nnn1-c1ccc2c(c1)OCCO2,"inconclusive: 14.1 µM [inhibitor, single point]",–
CCOc1ccc(CCNC(=O)COC(=O)COc2cc(C)cc(C)c2)cc1OCC,inactive,–
CC(=O)N1CCC(C(=O)Nc2nc(-c3ccccc3)ns2)CC1,"inconclusive: 2.82 µM [inhibitor, partial curve, poor fit]",–
CN1C(=O)C(O)(CC(=O)/C=C/c2ccco2)c2cc(Br)ccc21 (stereo not given),"inconclusive: 15.8 µM [inhibitor, partial curve]",–
O=C(/C=C/c1ccncc1)c1ccc2c(c1)OCCO2,"inconclusive: 28.2 µM [inhibitor, single point]",–
CC1(C)C(=O)Nc2ccccc2N1C(=O)COC(=O)/C=C/c1ccc(OC(F)F)cc1,"inconclusive: 14.1 µM [inhibitor, partial curve, poor fit]",–
Cc1cccc(OCC(=O)Nc2ccc3c(c2)nc(CN2CCCCC2)n3C)c1,"inconclusive: 28.2 µM [inhibitor, single point] and inconclusive: 12.6 µM [inhibitor, partial curve, poor fit]",–
O=C(CCl)N1N=C(c2cccs2)CC1c1ccco1 (stereo not given),"inconclusive: 15.8 µM [inhibitor, partial curve, poor fit]",–
Cc1ccc(-n2ncc3c(N4CCN(Cc5ccccc5)CC4)ncnc32)cc1Cl,"inconclusive: 12.6 µM [inhibitor, partial curve, poor fit]",–
Cc1onc(-c2ccccc2)c1C(=O)Nc1ccc(OC(C)C)cc1,"inconclusive: 0.708 µM [inhibitor, full curve, poor fit]",–
COc1ccc(N2CCn3c2nc2c3c(=O)n(CCCc3ccccc3)c(=O)n2C)c(OC)c1,"inconclusive: 12.6 µM [inhibitor, partial curve, poor fit]",–
O=C1ON=C(c2ccccc2)/C1=C/c1ccc(-c2ccccc2[N+](=O)[O-])o1,"inconclusive: 28.2 µM [inhibitor, partial curve, poor fit]",–
O=c1c(C=NCc2cccs2)c(O)n(C2CCCCC2)c(=O)n1C1CCCCC1,"inconclusive: 8.91 µM [inhibitor, partial curve]",–
CCN(CC(=O)Nc1ccc(NC(C)=O)cc1)C(=O)c1ccc2c(c1)OCCO2,"inconclusive: 5.01 µM [inhibitor, full curve]",–
O=c1c2ccccc2c(-c2ccc(Cl)cc2)nn1-c1ccccc1,"inconclusive: 25.1 µM [inhibitor, single point]",–
COc1cc(C(=O)Nc2ccccc2C(=O)Nc2ccccn2)cc(OC)c1OC,inactive,–
Cc1cccc2c(N)c3c(nc12)CCCC3 (tested in a mixture with another compound),"inconclusive: 1.58 µM [inhibitor, full curve]",–
Cc1noc(C)c1COc1cccc(C(=O)OCCOc2ccc(F)cc2)c1,"inconclusive: 25.1 µM [inhibitor, single point]",–
NC(=O)c1nsc(C(=O)N(c2ccccc2)C(C(=O)NCC2CCCO2)c2cccs2)c1N (stereo not given),"inconclusive: 10 µM [inhibitor, partial curve]",–
COc1ccc(C)cc1Nc1ncnc2c1nnn2Cc1ccccc1Cl,"inconclusive: 12.6 µM [inhibitor, partial curve]",–

# No new results follow: 4 of the compounds above.
SMILES,Potency,"activity, negative = inhibition"
C=CCc1cccc2cc(-c3nc4ccc(C(=O)O)cc4[nH]3)c(=O)oc12,"inconclusive: 15.8 µM [inhibitor, partial curve, poor fit]",–
CCOc1ccccc1NC(=O)CC1(CC(=O)N2CCOCC2)CCCC1,–,inconclusive: -31.4% [inhibitor]
Cc1cc(C(=O)C(C)OC(=O)c2ccc(NC(=O)CC#N)cc2)c(C)n1-c1ccccc1 (stereo not given),"inconclusive: 15.8 µM [inhibitor, partial curve, poor fit]",–
O=C(Nc1ccc(N2CCN(C(=O)c3ccccc3F)CC2)cc1)c1cncc(Br)c1,"inconclusive: 31.6 µM [inhibitor, partial curve, poor fit]",–
